Measured values as given in PMC3672139.
The exact form of at least one protein or probe is not confirmed. For some assays here: No signal at the amounts used counts as a negative.

Chains of the proteins cited; added tags and fusions are not shown. Chains listed by the source or under a name are the forms on record and can include a tag or linker.
RB1 (human), one chain, as listed by the source: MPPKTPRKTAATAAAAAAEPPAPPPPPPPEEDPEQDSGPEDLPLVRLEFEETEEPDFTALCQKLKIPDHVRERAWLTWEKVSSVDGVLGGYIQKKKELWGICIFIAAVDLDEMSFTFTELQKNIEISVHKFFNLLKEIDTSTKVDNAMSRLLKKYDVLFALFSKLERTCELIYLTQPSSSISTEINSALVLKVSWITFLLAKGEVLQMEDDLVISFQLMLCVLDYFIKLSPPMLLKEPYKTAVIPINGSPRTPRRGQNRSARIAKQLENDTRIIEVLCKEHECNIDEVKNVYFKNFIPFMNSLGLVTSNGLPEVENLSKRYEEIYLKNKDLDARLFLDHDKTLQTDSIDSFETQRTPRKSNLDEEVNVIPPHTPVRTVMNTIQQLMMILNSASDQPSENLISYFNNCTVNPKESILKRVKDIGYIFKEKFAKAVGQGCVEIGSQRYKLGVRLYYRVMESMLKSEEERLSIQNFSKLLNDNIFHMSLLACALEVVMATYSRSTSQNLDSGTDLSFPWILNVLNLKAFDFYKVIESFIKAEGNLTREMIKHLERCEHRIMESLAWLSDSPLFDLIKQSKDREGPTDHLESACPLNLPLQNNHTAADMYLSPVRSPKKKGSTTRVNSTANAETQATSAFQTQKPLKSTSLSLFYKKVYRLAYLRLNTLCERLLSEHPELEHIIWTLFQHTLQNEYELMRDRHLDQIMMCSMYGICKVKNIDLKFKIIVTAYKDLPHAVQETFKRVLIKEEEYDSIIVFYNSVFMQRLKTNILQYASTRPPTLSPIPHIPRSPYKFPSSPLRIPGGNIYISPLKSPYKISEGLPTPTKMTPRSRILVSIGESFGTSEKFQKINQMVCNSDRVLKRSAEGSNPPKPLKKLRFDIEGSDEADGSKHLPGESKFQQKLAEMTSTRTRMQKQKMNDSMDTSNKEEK

What was measured:
RB1 (human) [1] = test: EMSA; conditions: 10 mM Tris-HCl, 150 mM NaCl, 5 mM KCl, pH 7.4; EMSA room temperature 30 min, 12% PAGE in TBE; recombinant protein; folded or branched DNA
RB1 (human) [2] = test: SPR; conditions: DNA immobilized, 650 mM NaCl; 10 mM Tris-HCl, 150 mM NaCl, 5 mM KCl, pH 7.4; SPR 25 C (RB1 SPR with 650 mM NaCl); recombinant protein; label: 5'-biotin (SPR); single-stranded DNA

Row | Sequence | binding result (RB1 (human) [1]) | binding result (RB1 (human) [2])
1 | CGGGGGGTTTTGGGCGGC [RB1 G4] | binds | 
2 | CGTTTTGTTTTGGGCGGC [RB1 G4 Mut.] |  | no binding
